Results on 42 sequences are retold here after PMC7819943, “Rice protein-binding microarrays: a tool to detect cis-acting elements near promoter regions in rice”.

The list shows a part of the results.

This assay addresses T1, OsSMF1 (Oryza sativa, UniProt Q6ZLB0 1-436).
T1 sequence: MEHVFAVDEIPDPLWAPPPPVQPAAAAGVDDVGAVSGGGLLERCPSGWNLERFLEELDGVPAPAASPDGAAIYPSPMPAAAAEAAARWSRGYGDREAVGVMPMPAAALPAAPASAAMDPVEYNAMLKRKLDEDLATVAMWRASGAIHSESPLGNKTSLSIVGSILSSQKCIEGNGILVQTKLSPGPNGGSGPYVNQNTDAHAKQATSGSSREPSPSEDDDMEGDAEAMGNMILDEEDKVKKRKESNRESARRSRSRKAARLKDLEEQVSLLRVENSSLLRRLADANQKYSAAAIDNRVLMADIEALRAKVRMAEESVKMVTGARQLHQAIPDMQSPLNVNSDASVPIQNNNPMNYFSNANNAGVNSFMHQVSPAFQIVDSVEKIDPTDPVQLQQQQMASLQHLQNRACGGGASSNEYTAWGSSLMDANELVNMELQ
Description: protein-binding microarray (RPBM); PBS, 2% BSA, 51.3 ng/ul salmon testes DNA, 50 uM zinc acetate, 200 nM TF, 25 C, 1 h; high values mean tight binding. To be noted: protein: recombinant; tags: N-terminal polyhistidine and DsRed monomer fusion (pET32a); chain copies: 2; label: CyDye5-dUTP incorporated in the synthesized complementary strand; 3' TTTTT single-stranded linker to array surface; dsDNA, one strand shown. The gist of the method: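 Binding signal here means per-feature fluorescence intensity in arbitrary units. The values were read on an Axon 4000B scanner after a custom Agilent array, double-stranded by primer extension with Cy5-dUTP, was incubated with 200 nM protein at 25 °C for 1 h in PBS with 2% BSA, salmon testes DNA and 50 µM zinc acetate, then washed. The proteins were transcription factors with an N-terminal polyhistidine tag and DsRed, expressed in E. coli BL21-CodonPlus and purified on Ni–NTA.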
Regarding “CATCACTATCTTGTTGGAGCTGTATTGTCATCGTGTAATACGGAGTCACCTAGTGCAG”, the binding signal was 4190 fluorescence intensity (a.u.).

In the case of “CCAACAAGGCCTACTCGCACGTCGTCACTCCGTCCATCTCCGGAGTCACCTAGTGCAG”, the binding signal was 5300 fluorescence intensity (a.u.).

As for “TCCTCCACGTCAGAAGCGGTGATGGCTGGCGTTCTGCCGACGGAGTCACCTAGTGCAG”, the binding signal is 27900 fluorescence intensity (a.u.).

Regarding “CATCGTACACCACGTGTTACCAGTGTCTTGACCAAAGCGGCGGAGTCACCTAGTGCAG”, the binding signal is 6910 fluorescence intensity (a.u.).

With “CTGAGACAAGGGAATGCTTGGGGATCGGGGTAATTGATGACGGAGTCACCTAGTGCAG”, the binding signal is 4560 fluorescence intensity (a.u.).

On to “TAGTACAACCTCCAAATCCAGGTCAAACCAGGCGATTCGACGGAGTCACCTAGTGCAG”, for which the binding signal was 3410 fluorescence intensity (a.u.).

For the sequence “CCGCCTCGTCCCCTCCCCACCACCGCCACCGCCACCGCCACGGAGTCACCTAGTGCAG”, the binding signal is 3730 fluorescence intensity (a.u.).

As to “GAAATTATATGTTGCTGATCCAGTCACTGCCGCCTGTTACCGGAGTCACCTAGTGCAG”, the binding signal is 5000 fluorescence intensity (a.u.).

Regarding “TTCTCAGCCAATCCCCAGCTCACACGTGCCAACTCTTCCACGGAGTCACCTAGTGCAG”, the binding signal was 7630 fluorescence intensity (a.u.).

As to “CAAACACTCAAATGTGGCGTAAACATACCTATATCAGCCACGGAGTCACCTAGTGCAG”, the binding signal is 4060 fluorescence intensity (a.u.).

As for “CGATTTACTTCAAATTTTAGAGGATCAGATCCGACGAAATCGGAGTCACCTAGTGCAG”, the binding signal is 42900 fluorescence intensity (a.u.).

In the case of “CCCAGCCCGGCGTCCCCTTCTCGGCTTCCTCCTCCACCATCGGAGTCACCTAGTGCAG”, the binding signal was 4100 fluorescence intensity (a.u.).

As for “ATGGTGGTTGTTTAGCCGAGGGAATTGGTGGTGAGGTTAACGGAGTCACCTAGTGCAG”, the binding signal is 32400 fluorescence intensity (a.u.).

As to “GGATGGTTTATATTTCTTTGCTTACGTGGATCAACCAGGTCGGAGTCACCTAGTGCAG”, the binding signal is 20900 fluorescence intensity (a.u.).

For the sequence “CAGCCCGGACAGCGCGAACGACGCCGCGTCATCCGCCGGACGGAGTCACCTAGTGCAG”, the binding signal was 10200 fluorescence intensity (a.u.).

In the case of “CTGAACTTATTCCGTGCGCTTACACGTGGCCCATGAGGCACGGAGTCACCTAGTGCAG”, the binding signal is 5480 fluorescence intensity (a.u.).

As to “CAAAGTCTTTTGGGAAAGCCAAATCTGTCCACCTCACCATCGGAGTCACCTAGTGCAG”, the binding signal is 7460 fluorescence intensity (a.u.).

Consider “GCTGATGAATGATGTTGTGCAATTATAATTTTCTTCTTCTCGGAGTCACCTAGTGCAG”, for which the binding signal is 3950 fluorescence intensity (a.u.).

With “AAGCAAGATTCTGCGTGCTGTGAACTACTATTCAACAAGTCGGAGTCACCTAGTGCAG”, the binding signal is 28500 fluorescence intensity (a.u.).

Consider “ATAAATTATATATAGAAAAGTTTTCGTACAAAATATAATACGGAGTCACCTAGTGCAG”, for which the binding signal was 28900 fluorescence intensity (a.u.).

On to “AGGGTGATGTAATAATATAGATTGTAGAACCCTAATATCGCGGAGTCACCTAGTGCAG”, for which the binding signal was 3220 fluorescence intensity (a.u.).

Consider “GAATCATATTCTATTACTATTACTACTTGGAATATGAGTTCGGAGTCACCTAGTGCAG”, for which the binding signal is 3470 fluorescence intensity (a.u.).

In the case of “GTTTTGGTTGTAGACGTGGTTTGATAATAGTTGGCTAAGGCGGAGTCACCTAGTGCAG”, the binding signal was 3780 fluorescence intensity (a.u.).

Consider “CTTCACCGGTGGCATACCACCGTGGCTGGCTTCTATGCCTCGGAGTCACCTAGTGCAG”, for which the binding signal was 3400 fluorescence intensity (a.u.).

For the sequence “ACAATGGGCTGTGACGTGCTAGCCTGGGTCGGCCCAAGTCCGGAGTCACCTAGTGCAG”, the binding signal was 5620 fluorescence intensity (a.u.).

On to “GTCGGCAAGGAGAAGGATGGATCAGAATAGTCATAGATGGCGGAGTCACCTAGTGCAG”, for which the binding signal is 24300 fluorescence intensity (a.u.).

Take “AGGCGCCACGACGGAACGGGCGCTACAATGTATCACTTTTCGGAGTCACCTAGTGCAG”: the binding signal is 4420 fluorescence intensity (a.u.).

Regarding “TGAGACCGGAAATCATCGGATCTACATGTCAGTGACACGGCGGAGTCACCTAGTGCAG”, the binding signal was 5460 fluorescence intensity (a.u.).

For “AGGAGGTAGGATAGTTCCCTCCGTAATGGATCGAGGATGTCGGAGTCACCTAGTGCAG”, the binding signal is 42000 fluorescence intensity (a.u.).

As for “GAGATTATATGTGATCTCTTAATAAGAGGTCCTACTCGAACGGAGTCACCTAGTGCAG”, the binding signal was 3310 fluorescence intensity (a.u.).

For the sequence “CATATCCGCATCTGCATCCGCATCTGGCCGGATATCTAAACGGAGTCACCTAGTGCAG”, the binding signal was 23900 fluorescence intensity (a.u.).

As to “ACTACATTGGATGACAACTAGGCCCCACTACTGATTAAGTCGGAGTCACCTAGTGCAG”, the binding signal was 3210 fluorescence intensity (a.u.).

Regarding “CCACCACCGTGACGCCGTGTCCACACGCAGCCCGAGCCGCCGGAGTCACCTAGTGCAG”, the binding signal was 3230 fluorescence intensity (a.u.).

As for “GGTGCGGGTAGCGCGCGCGCGCATCGCCTCGTCGGAGGAGCGGAGTCACCTAGTGCAG”, the binding signal was 3570 fluorescence intensity (a.u.).

Take “TGATCATTTTCACGGCGGAGGTAAAGTGGTACAGTCACATCGGAGTCACCTAGTGCAG”: the binding signal is 3600 fluorescence intensity (a.u.).

On to “CGGACGCCGCTGCAGTACCCAATGACGACACCACCACCACCGGAGTCACCTAGTGCAG”, for which the binding signal is 4200 fluorescence intensity (a.u.).

As for “TCGGTTGAGAAGACTTGGTCATCTCAACCACCGACGCAGGCGGAGTCACCTAGTGCAG”, the binding signal was 3470 fluorescence intensity (a.u.).

Turning to “AGTGAATTCGAATTCACGGTTCGTTCCGTCCTCCTCCCTGCGGAGTCACCTAGTGCAG”, the binding signal was 32500 fluorescence intensity (a.u.).

On to “AATAGTACGGCGCTGAGTGCACGTTGGCACGCCGACTCAGCGGAGTCACCTAGTGCAG”, for which the binding signal is 3930 fluorescence intensity (a.u.).

Consider “GTTCGGATCTACATACCACGTATATATAACGTATTGATTGCGGAGTCACCTAGTGCAG”, for which the binding signal is 5060 fluorescence intensity (a.u.).

On to “GAGGAAATGCCTGGGAGGAGGAGGAGGGACTCGGGGCGGGCGGAGTCACCTAGTGCAG”, for which the binding signal was 3910 fluorescence intensity (a.u.).

For “CGCCGCCTGCTCCCCGTCGCCGTCGGCGCTGGCGGCGGGGCGGAGTCACCTAGTGCAG”, the binding signal is 3190 fluorescence intensity (a.u.).
